Drawing on PubChem BioAssay AID493014 (National Center for Advancing Translational Sciences (NCATS), 2011), this text covers AC50 for 66 molecules.

The experiment can be described thus: qHTS Assay to Find Inhibitors of Chronic Active B-Cell Receptor Signaling. Particulars: ABC-DLBCL IkBa-CBG/CBR reporter, luminescence ratio (green luciferase fused to IkBa over red control in TMD8 lymphoma cells), 4 h. In a few lines:
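TMD8 human ABC-DLBCL cells with doxycycline-inducible IκBα–green luciferase fusion and unfused red luciferase, in 0.5% FBS medium; compounds up to 46 uM, 4 h at 37C. Green/red luminescence ratio, filter-overlap corrected, fitted to concentration-response curves.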

[1] abbreviates: measured here: CBR red luminescence, cell number.
The mark [2] stands for this setting: measured here: IkBa-CBG green luminescence.

The other results are listed elsewhere or left out. The main result of the screen is listed elsewhere. These columns were measured beside it and carry no call. The list favours compounds with an active or inconclusive main result. Potencies come from curve fits of mixed quality, noted in brackets.

With `O=C(N/N=C/c1ccc(OC(=O)c2cccs2)cc1)c1ccccn1`, the AC50 under setting [1] was 8.91 µM [falling, partial curve].

For `O=C(CNc1cc(S(=O)(=O)N2CCOCC2)ccc1NCC1CCCO1)Nc1ccc(F)c(F)c1` (centres undefined), the AC50 under setting [1] is 17.8 µM [falling, single point].

In the case of `O=C(NCc1cccnc1)c1ccc(-c2ccc(Cl)cc2)o1`, the AC50 under setting [1] was 2.24 µM [rising, partial curve].

Turning to `c1ccc(Oc2cccc(OCCCn3cncn3)c2)cc1`, the concentration at half-maximal activity (AC50) under setting [1] was 10.3 µM [falling, partial curve].

For `CCn1cc(C(=O)NCC2CCCO2)c(=O)c2cc(S(=O)(=O)N3CCCCC3)ccc21` (centres undefined), the AC50 under setting [1] is 3.55 µM [rising, single point].

Turning to `CCOc1ccc2c(CC)cc(=O)oc2c1OCC`, the AC50 is, setting by setting: under setting [1], 20.6 µM [rising, partial curve]; under setting [2], 20.6 µM [falling, single point].

In the case of `O=C(/C=C/c1ccc(F)cc1)NCCNC(=O)/C=C/c1ccc(F)cc1`, under setting [1], the AC50 is 35.5 µM [rising, single point].

Turning to `COc1ccccc1N(CC(=O)Nc1cccnc1)S(C)(=O)=O`, the AC50 under setting [1] was 6.31 µM [falling, single point].

For the molecule `Cc1nnc(SCC(=O)NC2CCCCCC2)n1N`, under setting [1], the AC50 is 29.1 µM [rising, single point].

On to `COc1cccc(N2CCN(CC(=O)NC3=Nc4ccccc4N=C(C)C3c3ccccc3)CC2)c1` (centres undefined), for which, under setting [1], the AC50 is 25.1 µM [falling, single point].

As for `O=S(=O)(NCc1cc(-c2ccccc2)no1)c1ccc(Cl)cc1`, the concentration at half-maximal activity (AC50) under setting [1] is 8.91 µM [rising, partial curve].

As for `Cn1c(=O)c2c(nc(NCc3cccnc3)n2Cc2ccc(Cl)cc2)n(C)c1=O`, under setting [1], the AC50 was 1.16 µM [falling, full curve].

For the molecule `Cc1ccccc1N=Cc1cc2c(cc1O)OC(N)=C(C#N)C2c1ccccc1` (centres undefined), the AC50 runs as follows: under setting [1], 20.6 µM [falling, partial curve]; under setting [2], 23.1 µM [rising, partial curve, poor fit].

On to `Nc1ccnn1Cc1ccc(Br)s1`, for which, under setting [1], the AC50 was 5.17 µM [rising, single point].

For the molecule `COc1ccccc1-c1noc(CSc2nc(C)cc(=O)[nH]2)n1`, the AC50 under setting [1] was 35.5 µM [falling, single point].

`Cc1ccc(C2=NNC3(CCOC(C)(C)C3)S2)cc1` (centres undefined): the concentration at half-maximal activity (AC50) under setting [1] was 35.5 µM [falling, single point].

For the molecule `CCCCOc1cccc(C(=O)NNC(=S)NC2CCCCC2)c1`, the AC50 under setting [1] was 16.4 µM [falling, partial curve, poor fit].

For `COc1ccccc1-n1c(=S)[nH]c2c(sc(=S)n2-c2ccccc2C)c1=O`, the AC50 under setting [1] was 14.1 µM [falling, partial curve, poor fit].

Turning to `CC(=O)Nc1ccc(S(=O)(=O)Nc2cccc3cccnc23)cc1`, under setting [1], the AC50 was 2 µM [rising, partial curve, poor fit].

As to `CCCc1nc2scc(-c3ccccc3)c2c(=O)n1N`, under setting [1], the AC50 was 3.66 µM [rising, full curve, poor fit].

For the molecule `COC(=O)c1ccc(NC(=S)Nc2ccc3ccccc3c2)cc1`, under setting [1], the AC50 was 10.3 µM [falling, partial curve].

Turning to `COc1cccc(C(=O)NCCn2ccc3ccccc32)c1`, the AC50 under setting [1] is 6.51 µM [falling, partial curve].

For `OCCSc1ncnc2c1oc1ccccc12`, the AC50 under setting [1] was 2.51 µM [falling, single point].

As for `Nc1ccc2nc(NC(=O)C3CCCCC3)sc2c1`, under setting [1], the AC50 is 7.08 µM [falling, partial curve, poor fit].

Consider `O=C(Nc1ccc2c(c1)C(=O)NC2=O)c1ccccc1Cl`, for which the AC50 under setting [1] is 35.5 µM [falling, single point].

For the molecule `COC(=O)Nc1nnc(/C=C/c2ccccc2)s1`, the AC50 under setting [1] was 1.16 µM [rising, partial curve, poor fit].

With `O=C(N/N=C/c1cccs1)c1[nH]ncc1Br`, the AC50 under setting [1] was 14.1 µM [falling, partial curve].

In the case of `O=C(CN1C(=O)N/C(=C\c2ccccc2OCc2ccc(C(=O)O)cc2)C1=O)Nc1ccccc1F`, under setting [1], the AC50 was 0.112 µM [falling, partial curve, poor fit].

In the case of `C=CCn1c(NCc2cc(C)ccc2O)nc2ccccc21`, the AC50 under setting [1] was 29.1 µM [falling, single point].

`Clc1ccccc1CSC1=NCCN1`: the AC50 under setting [1] was 35.5 µM [falling, single point].

Take `O=C(N/N=C/c1ccncc1)c1nn(Cc2ccccc2)c(=O)c2ccccc12`: the AC50 under setting [1] was 35.5 µM [falling, single point].

Regarding `O=C(CCCc1nc(-c2ccccc2)no1)NC1CCCCC1`, the AC50 under setting [1] was 14.1 µM [rising, partial curve, poor fit] and the AC50 under setting [2] is 5.62 µM [rising, partial curve, poor fit].

Consider `Nc1nnnn1CC(=O)N/N=C/C=C/c1ccccc1`, for which the AC50 under setting [1] is 17.8 µM [rising, single point].

Take `COC(=O)c1cc(=O)n(CCc2ccccc2F)c(=Nc2ccc(F)c(Cl)c2)s1`: the AC50 under setting [1] was 5.17 µM [falling, full curve].

Take `COc1cc2cnc(CCO[C@H]3CCCCO3)cc2cc1OC`: the AC50 under setting [1] is 32.6 µM [rising, single point].

With `O=C(NCc1cc(F)cc(C(F)(F)F)c1)C1CCC(=O)N(C2CCCC2)C1` (centres undefined), under setting [1], the AC50 was 20 µM [falling, single point].

With `COc1ccc2sc(N(CCCN(C)C)C(=O)c3ccc(S(=O)(=O)N4CCCC4)cc3)nc2c1`, under setting [1], the AC50 is 0.58 µM [falling, full curve, poor fit].

`CCSc1ccccc1C(=O)NCc1cccnc1`: the AC50 under setting [1] is 5.62 µM [falling, single point].

For the molecule `CCN(CC)CCP(=O)(c1ccccc1)c1ccccc1`, under setting [1], the AC50 is 32.6 µM [rising, single point].

As to `O=C1NC(=S)N/C1=C/c1cccc2ccccc12`, the AC50 under setting [1] is 11.2 µM [rising, partial curve, poor fit].

As to `COc1cc(NC(=O)c2cccc(C)c2)ccc1NC(=O)c1cc2ccccc2o1`, the AC50 under setting [1] was 7.94 µM [rising, partial curve, poor fit].

Consider `CN1CCc2c(sc3c2C(=O)NC(c2ccc4c(c2)OCO4)N3)C1` (centres undefined), for which the AC50 under setting [1] is 23.1 µM [falling, partial curve, poor fit].

With `CCOc1ccc(NC(=S)N2CCC(c3nc4ccccc4[nH]3)CC2)cc1`, under setting [1], the AC50 is 17.8 µM [rising, partial curve, poor fit].

Regarding `Clc1ccc(-n2cccc2)cn1`, the AC50 under setting [1] was 11.2 µM [rising, partial curve, poor fit].

`N#Cc1c(-c2ccccc2)cc2nc3ccccc3n2c1N`: the AC50 under setting [1] was 14.6 µM [falling, partial curve, poor fit].

As to `CN(C)C(=O)c1ccccc1-c1ccccc1`, the AC50 under setting [1] was 29.1 µM [rising, single point].

In the case of `C=CCNC(=O)C(=O)NCC(c1ccc2c(c1)OCO2)N1CCN(c2ccc(F)cc2)CC1` (centres undefined), the AC50 under setting [1] was 20 µM [falling, partial curve].

Regarding `Cc1ccc(-n2cnc3sc(C)c(C)c3c2=O)cc1`, under setting [1], the AC50 was 22.4 µM [rising, partial curve, poor fit].

Regarding `Cn1c(CCNC(=O)c2ccco2)nc2cc(NC(=O)c3ccco3)ccc21`, the AC50 under setting [1] is 13 µM [falling, partial curve].

On to `C[C@H](CO)N1C[C@H](C)[C@@H](CN(C)Cc2ccncc2)Oc2c(cccc2N(C)C)C1=O`, for which the AC50 under setting [1] was 0.116 µM [rising, full curve, poor fit].

Consider `COCc1cc(Sc2ccc(OC)cc2)nc(-c2ccccc2)n1`, for which the AC50 under setting [1] is 6.31 µM [rising, full curve, poor fit].

For the molecule `CSc1ccc(/C=C/C(=O)c2ccc(NC(=O)Cc3ccccc3)cc2)cc1`, the AC50 under setting [1] is 20 µM [falling, single point].

In the case of `CC(C)CNc1c(N)c(=O)oc2ccccc12`, the AC50 under setting [1] was 2.59 µM [falling, partial curve].

For the molecule `Cc1cc(C(=O)Nc2nc3c(s2)CCCC3)no1`, the AC50 under setting [1] is 6.51 µM [falling, partial curve].

As for `Cc1cccc(NC(=O)N2CCC(NC(=O)C3CCCCC3)CC2)c1`, the AC50 under setting [1] was 3.98 µM [rising, partial curve, poor fit].

As for `O=C1C=C(c2ccc(OC(F)(F)F)cc2)C[C@@H](c2ccc(F)cc2)C1`, under setting [1], the AC50 is 25.9 µM [rising, single point].

As for `CCN(CCCNC(=O)c1cc2c(-c3cccc(OC)c3)nn(C)c2s1)Cc1ccccc1`, the AC50 under setting [1] was 14.1 µM [falling, single point].

For the molecule `CC(C)Oc1nc(-c2ccc(Cl)cc2)nc2ccccc12`, under setting [1], the AC50 is 8.91 µM [rising, partial curve, poor fit].

Take `Cc1cnc(NC(=O)Cc2ccc(C)c(C)c2)s1`: the AC50 under setting [1] is 35.5 µM [falling, single point].

For the molecule `Cc1ccc(N(C(C)C(=O)Nc2cc(Cl)ccc2Oc2ccccc2)S(C)(=O)=O)cc1` (centres undefined), the AC50 under setting [1] was 35.5 µM [falling, single point].

With `CCCC(=O)Nc1nc2nc(-c3ccccc3)cc(=O)n2[nH]1`, the AC50 under setting [1] is 29.1 µM [falling, single point].

On to `Nc1nc(SCC(=O)Nc2ccc(Oc3ccccc3)cc2)n[nH]1`, for which, under setting [1], the AC50 was 0.517 µM [rising, full curve, poor fit].

For `Cn1cccc1Cc1nnc(SCC(=O)NC2CCCC2)n1-c1ccc(F)cc1`, under setting [1], the half-maximal activity concentration (AC50) was 23.1 µM [falling, partial curve, poor fit].

Consider `COc1ccc(Cl)cc1NC(=O)CSc1nnc(Cc2cccn2C)n1-c1ccc(F)cc1`, for which the AC50 under setting [1] was 23.1 µM [falling, single point].

Turning to `O=C(O)/C=C/c1coc2ccc(F)cc2c1=O`, the AC50 under setting [1] was 14.6 µM [rising, partial curve, poor fit].

Take `COc1ccc([C@H]2CC(=O)C=C(c3ccc(-c4ccccc4)c(F)c3)C2)cc1`: under setting [1], the AC50 was 0.0731 µM [rising, full curve, poor fit].
